In publication PMC7822929 one finds binding data, which are given here for one substance.

Chains of the proteins cited; added tags and fusions are not shown. Residues count along the entry.
UniProt O00206, residues 24-839: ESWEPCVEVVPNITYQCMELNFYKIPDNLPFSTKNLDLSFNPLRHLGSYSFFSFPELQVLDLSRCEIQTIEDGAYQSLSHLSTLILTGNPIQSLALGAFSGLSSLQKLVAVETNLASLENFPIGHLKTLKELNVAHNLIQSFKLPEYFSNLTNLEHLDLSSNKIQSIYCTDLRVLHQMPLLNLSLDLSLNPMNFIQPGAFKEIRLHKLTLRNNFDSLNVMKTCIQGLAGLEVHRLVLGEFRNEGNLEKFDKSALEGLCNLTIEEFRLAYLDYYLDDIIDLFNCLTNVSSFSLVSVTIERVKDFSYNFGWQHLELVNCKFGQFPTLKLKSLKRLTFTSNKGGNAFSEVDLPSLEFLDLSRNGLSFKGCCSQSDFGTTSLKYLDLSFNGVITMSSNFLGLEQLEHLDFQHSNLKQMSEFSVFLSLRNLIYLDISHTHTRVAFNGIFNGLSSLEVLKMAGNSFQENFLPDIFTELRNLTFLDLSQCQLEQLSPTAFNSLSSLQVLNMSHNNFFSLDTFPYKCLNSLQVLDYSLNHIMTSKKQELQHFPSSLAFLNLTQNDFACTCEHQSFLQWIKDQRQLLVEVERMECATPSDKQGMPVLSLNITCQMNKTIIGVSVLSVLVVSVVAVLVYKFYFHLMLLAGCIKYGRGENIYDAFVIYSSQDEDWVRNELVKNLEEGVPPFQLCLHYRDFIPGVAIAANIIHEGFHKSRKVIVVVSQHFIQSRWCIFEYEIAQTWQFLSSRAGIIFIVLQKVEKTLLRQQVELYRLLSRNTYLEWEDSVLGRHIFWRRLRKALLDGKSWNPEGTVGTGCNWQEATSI
UniProt P14625, residues 22-803: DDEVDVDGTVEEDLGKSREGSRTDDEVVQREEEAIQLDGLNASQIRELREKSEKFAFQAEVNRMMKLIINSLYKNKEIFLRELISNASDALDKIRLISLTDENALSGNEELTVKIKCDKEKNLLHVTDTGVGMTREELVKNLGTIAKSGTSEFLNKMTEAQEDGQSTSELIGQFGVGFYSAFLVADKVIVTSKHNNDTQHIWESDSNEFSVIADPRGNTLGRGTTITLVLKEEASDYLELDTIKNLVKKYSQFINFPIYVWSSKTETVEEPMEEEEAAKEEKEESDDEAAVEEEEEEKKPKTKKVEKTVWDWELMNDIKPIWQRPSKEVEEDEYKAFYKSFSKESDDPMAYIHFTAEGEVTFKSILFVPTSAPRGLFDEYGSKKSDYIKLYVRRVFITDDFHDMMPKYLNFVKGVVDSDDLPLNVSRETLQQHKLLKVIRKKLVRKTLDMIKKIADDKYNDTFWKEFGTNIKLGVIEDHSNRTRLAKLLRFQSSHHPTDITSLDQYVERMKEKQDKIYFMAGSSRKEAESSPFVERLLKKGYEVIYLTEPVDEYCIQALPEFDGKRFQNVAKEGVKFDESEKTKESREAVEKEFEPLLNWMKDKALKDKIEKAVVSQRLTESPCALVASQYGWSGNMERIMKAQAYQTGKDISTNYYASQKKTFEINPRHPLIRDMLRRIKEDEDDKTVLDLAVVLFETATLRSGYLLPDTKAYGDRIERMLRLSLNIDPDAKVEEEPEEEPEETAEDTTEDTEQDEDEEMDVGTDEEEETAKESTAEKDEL

These are yes or no findings as the source states them, for the method shown. Binding seen in cells or lysates may run through a third protein. Some results given as binding are weak or reduced against the parent protein; the word gives no strength.

For the experiment, the target named is TLR4, endogenous in human monocyte-derived macrophages (human (endogenous in monocyte-derived macrophages)) (UniProt O00206). Description: proximity ligation; Duolink PLA in situ in activated M1 and M2 macrophages, treated or not with Tg, pretreated or not with PU-WS13 or DMSO; pairs of primary antibodies (anti-C3d + anti-GRP94; anti-GRP94 + anti-TLR4; anti-GRP94 + anti-cathepsin L); spots per cell counted.

For “Glucose-regulated protein 94 (GRP94), endogenous in human monocyte-derived macrophages (from UniProt P14625 22-803)”, the binding result is “binds”.
